Measured values reported in US20240139148A1, “COMPOSITIONS AND METHODS FOR TREATING NON-TUBERCULOUS MYCOBACTERIAL INFECTIONS” (priority 2021, published 2024).
At least one structure is not confirmed: it was looked up by name or label, or the drawing left a doubt.

Tests used:
Format in all cases: cell-based, M. abscessus subsp. abscessus
[1] = system: MabsΔdosRS complemented with dosRS; conditions: dosRS complemented mutant; 7 d treatment; AMK 64, AZI 32, CFZ 2, IMI 32 mg L^−1
[2] = system: WT Mabs ATCC 19977; conditions: 7 d treatment, AMK 64, AZI 32, CFZ 2, IMI 32 mg L^−1
[3] = system: MabsΔdosRS; conditions: IMI 32 mg L^−1; 7 d under hypoxia

C[C@@H](O)[C@H]1C(=O)N2C(C(=O)O)=C(SCCN=CN)C[C@H]12 [IMI, imipenem]
tolerance to antibiotics under hypoxia [1]: fully tolerant to all antibiotics | tolerance to antibiotics under hypoxia [2]: fully tolerant to all antibiotics | viability of mutant strain after antibiotic treatment [3]: did not reduce the viability
